The list shows only some results of the screen, not a fair sample: it gathers tests that were run many times, whatever their T/C, doses with no T/C, and many T/C values between a quarter and a half above the control. Further doses and runs are listed elsewhere. T/C: endpoint of the treated group in % of that of the vehicle group. Some doses have a count of surviving animals in place of a T/C: the source files T/C as zero there, which appears to mark a toxic dose or a test without result, not a measured value. Some doses without a T/C left all or most animals alive at the check, yet need not have been tolerated: the source hardly ever lists a survival T/C far under the control, and the zero likely stands for such cases as well. Counts of survivors are from the toxicity check (mostly the fifth day) where no day follows; animals may have died later. Schedules are NCI's codes, taken here to give the interval after Q, in days (D) or hours (H), and the number of doses after X. For survival time, the PubChem record calls one and a half times the control and up active, and a quarter to a half above the control has no call in these data; cut-offs in other NCI protocols can differ. Some entries were tested several times; their values stand side by side, smallest first. Some T/C values carry the count of animals alive at the toxicity check (mostly the fifth day); without a count, all were alive then.
Tested on: BDF1 mice, P388 leukemia ip, median survival T/C
Assay: NCI In Vivo Anticancer Drug Screen. Data for tumor model P388 Leukemia (intraperitoneal) in B6D2F1 (BDF1) mice
Conditions: T/C endpoint: median survival time, schedule: Q01DX009 (ip), higher T/C = longer survival
In short: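 Transplantable tumour in mice; compound vs vehicle dosing; survival scored; ratio of treated to control reported.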

[1] = dose: 100.0 mg/kg/injection, vehicle: saline
[2] = dose: 200.0 mg/kg/injection, vehicle: saline

## COc1cc(NCCCCCCCNC(C)C)c2nccc(C)c2c1
dose: 12.5 mg/kg/injection, vehicle: saline
  T/C: 125 and 127 % of control
dose: 50.0 mg/kg/injection, vehicle: saline
  survivor count: 5 of 6
[1]
  survivor count: 0 of 6
[2]
  survivor count: 0 of 6

## O=CN1CCN(c2ccc([N+](=O)[O-])c3nonc23)CC1
dose: 60.0 mg/kg/injection, vehicle: saline with Tween-80
  survivor count: 4 of 7

## CC(C)=CCNc1ncnc2nc[nH]c12
dose: 40.0 mg/kg/injection, vehicle: saline with Tween-80
  survivor count: 6 of 6

## C[n+]1cc2cc3c(cc2c2ccccc21)OCO3
dose: 3.13 mg/kg/injection, vehicle: other
  T/C: 132 % of control
dose: 6.25 mg/kg/injection, vehicle: other
  T/C: 134 % of control
dose: 12.5 mg/kg/injection, vehicle: other
  T/C: 132 % of control
dose: 25.0 mg/kg/injection, vehicle: other
  survivor count: 6 of 6
dose: 50.0 mg/kg/injection, vehicle: other
  survivor count: 5 of 6
dose: 100.0 mg/kg/injection, vehicle: other
  survivor count: 0 of 6

## O=C(/C=N/O)Nc1cc(Cl)c(Cl)cc1Cl
dose: 200.0 mg/kg/injection, vehicle: saline with Tween-80
  T/C: 128 % of control
dose: 300.0 mg/kg/injection, vehicle: saline with Tween-80
  survivor count: 3 of 6

## CCCCCCOP(=O)(N1CC1C)N1CC1C (stereo not drawn)
dose: 66.0 mg/kg/injection, vehicle: saline
  T/C: 143 % of control
dose: 150.0 mg/kg/injection, vehicle: saline
  T/C: 147 % of control [5 of 6 alive]

## Cc1ccnc(NS(=O)(=O)c2ccc(N=Nc3nc4[nH]c(N)nc(=S)c4[nH]3)cc2)n1
dose: 12.5 mg/kg/injection, vehicle: Klucel (hydroxypropylcellulose) (HPC)
  survivor count: 6 of 6
dose: 25.0 mg/kg/injection, vehicle: Klucel (hydroxypropylcellulose) (HPC)
  survivor count: 6 of 6
dose: 50.0 mg/kg/injection, vehicle: Klucel (hydroxypropylcellulose) (HPC)
  survivor count: 5 of 6

## COc1ccc(C)cc1NN
dose: 25.0 mg/kg/injection, vehicle: saline
  survivor count: 6 of 6
[1]
  survivor count: 0 of 6
[2]
  survivor count: 0 of 6

## Nc1cc(S(N)(=O)=O)ccc1SSc1ccc(S(N)(=O)=O)cc1N
dose: 400.0 mg/kg/injection, vehicle: saline
  T/C: 136 % of control
